This series can be described thus: general procedure: Fmoc solid-phase peptide synthesis; 2-Cl-trityl resin. The conditions noted are these: whole synthesis.

Consider linear octapeptide III, for which the isolated mass is given as 143 mg. The substance also came in with an isolated yield (on resin substitution after first amino acid (285 µmol), scale of the general procedure 400 x 10^-6 mol of active groups) of 55%.

For the origin of these results see patent EP3160993 (dated 2016).
